For series [1], the target named is T1, HLTF HIRAN domain WT (human) (UniProt Q14527).
T1 sequence (looked up): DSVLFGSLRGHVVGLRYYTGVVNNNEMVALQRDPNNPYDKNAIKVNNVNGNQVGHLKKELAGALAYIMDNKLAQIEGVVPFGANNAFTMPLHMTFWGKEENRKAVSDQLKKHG
Briefly: EMSA. The conditions noted are these: very high affinity for ssDNA; recombinant protein; residues 56-168; single-stranded DNA. (In general: Mobility shift assays separate free from complexed probe on a gel.)

Series [2] addresses T2, HLTF HIRAN domain NN90,91AA N90A,N91A (human) (UniProt Q14527).
T2 sequence (looked up): T1 sequence (looked up) with N35A, N36A
Briefly: EMSA. The conditions noted are these: recombinant protein; residues 56-168; single-stranded DNA.

Series [3] concerns the target T3, GST-FLAG-HIRAN (WT) (human) (UniProt Q14527).
T3 sequence (looked up): T1 sequence (looked up)
Briefly: competition with a labelled probe. The note with it: 0-1 uM competitor against Cy5 fork, lower affinity than fork; Competition: 20 mM HEPES pH 7.5, 150 mM NaCl, 1 mM DTT, 0.1 ug/mL BSA, 0.2% NP40, 10% glycerol, room temperature 15 min; recombinant protein; residues 56-168; protein details: GST-FLAG; label: 5' fluorescein; single-stranded DNA.

Numbering of substitutions follows the chain as printed. For part of these data: No signal at the amounts used counts as a negative. At least one verdict was read from the data and is not stated in words by the source. Protein sequences can lack the tags named with them. For part of these data: The exact form of at least one protein or probe is not confirmed. For part of these data: Weaker means in comparison with the reference protein, sequence or condition of that experiment.

On to “GAGAGAGAGAGAGAGAGAGAGAGAGAGAGAGAGAGAGAGAGA [ss 42-mer O1358]”, for which the binding result in series [1] was “binds”; in series [2] it was “no binding”.
As for “GTTTTCCCAGTCACGACGATGCTCCGGTACTCCAGTGTAGGCATATTACGAATTCTTGAGGCAGGCATGGTAGCT [ss 75-mer O3063]”, the binding result in series [3] was “binds more weakly”.

(Values after publication PMC4666394, “Human HLTF mediates postreplication repair by its HIRAN domain-dependent replication fork remodelling”.)
